From patent US20250302977A1
No constants are given. Whether binding was seen depends on the method and setting. Some entries that bind do so weakly or less than the wild type.

T1: soluble full-length uPARAP (UniProt Q9UBG0)
T1 sequence (looked up): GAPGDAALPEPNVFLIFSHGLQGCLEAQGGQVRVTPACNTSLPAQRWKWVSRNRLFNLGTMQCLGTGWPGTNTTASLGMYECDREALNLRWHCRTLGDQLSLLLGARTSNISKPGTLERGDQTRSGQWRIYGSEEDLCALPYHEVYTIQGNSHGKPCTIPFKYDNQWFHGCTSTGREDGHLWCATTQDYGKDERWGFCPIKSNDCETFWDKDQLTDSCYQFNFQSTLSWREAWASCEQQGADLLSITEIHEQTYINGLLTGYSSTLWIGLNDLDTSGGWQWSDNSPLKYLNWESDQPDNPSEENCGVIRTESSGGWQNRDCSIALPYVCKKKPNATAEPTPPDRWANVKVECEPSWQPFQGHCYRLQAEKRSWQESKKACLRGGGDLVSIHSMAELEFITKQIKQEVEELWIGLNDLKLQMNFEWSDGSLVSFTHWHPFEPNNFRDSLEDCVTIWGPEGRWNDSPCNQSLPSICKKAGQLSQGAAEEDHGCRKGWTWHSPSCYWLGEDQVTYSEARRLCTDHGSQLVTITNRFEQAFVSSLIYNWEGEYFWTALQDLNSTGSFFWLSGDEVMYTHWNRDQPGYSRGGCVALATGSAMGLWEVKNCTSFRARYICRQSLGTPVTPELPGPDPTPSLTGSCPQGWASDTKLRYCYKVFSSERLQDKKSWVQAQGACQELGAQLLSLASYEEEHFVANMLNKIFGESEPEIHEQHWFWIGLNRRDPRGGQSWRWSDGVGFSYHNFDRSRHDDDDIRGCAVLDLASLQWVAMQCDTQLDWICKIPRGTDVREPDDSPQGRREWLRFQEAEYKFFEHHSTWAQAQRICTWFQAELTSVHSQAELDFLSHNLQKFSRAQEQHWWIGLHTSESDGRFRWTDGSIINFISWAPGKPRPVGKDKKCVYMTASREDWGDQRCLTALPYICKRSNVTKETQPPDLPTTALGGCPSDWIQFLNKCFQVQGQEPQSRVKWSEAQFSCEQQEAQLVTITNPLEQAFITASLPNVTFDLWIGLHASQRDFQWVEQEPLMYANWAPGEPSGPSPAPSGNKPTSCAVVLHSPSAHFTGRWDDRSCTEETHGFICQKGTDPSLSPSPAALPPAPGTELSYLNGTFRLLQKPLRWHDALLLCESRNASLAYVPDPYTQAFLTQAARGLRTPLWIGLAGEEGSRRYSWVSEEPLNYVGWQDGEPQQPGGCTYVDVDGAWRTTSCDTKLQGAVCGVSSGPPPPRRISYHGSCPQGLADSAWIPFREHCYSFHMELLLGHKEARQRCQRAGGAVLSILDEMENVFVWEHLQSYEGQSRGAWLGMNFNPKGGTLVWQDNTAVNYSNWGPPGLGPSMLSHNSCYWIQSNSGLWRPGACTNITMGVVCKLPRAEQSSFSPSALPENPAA


Target: T1, soluble full-length uPARAP
Assay: SPR, conclusion of Example 1

Row | Binder | binding
1 | humanized 9b7 antibody 980.2 LC4HC3 (antibody, human IgG1, kappa, V domains shown) VH: QVQLVQSGAEVKKPGASVKVSCKASGYIFIDYGMHWVRQAPGQRLEWMGSINTKSGVSTYAAEFKGRVTIYSDTSASTAYMELSSLRSEDTAVYFCARPPYYSQYGSYWGQGTLVTVSS VL: EIVMTQSPDSLAVSLGERATINCKASQNVDTYVVWYQQKPGQPPQPLIYSASSRFSGVPDRFSGSGSGTDFTLTISSLQAEDVAIYYCQQYHNSPLTFGGGTKVEIKR | binds
2 | chimeric antibody 980.2 LC0HC0 (antibody, human IgG1, kappa, V domains shown) VH: QVHLVQSGPELKKPGETVKISCKASGYIFIDYGMHWVKQAPGKGLKWMGSINTKSGVSTYAAEFKGRFAFSLETSASTAYLQINNLKNEDTATYFCARPPYYSQYGSYWGQGTLVTVSA VL: DIVMTQSQKFMSTSVGDRVSVTCKASQNVDTYVVWYQQKPGQSPKPLIYSASSRFSGVPDRFTGTGSGTDFTLTINNVQSEDLAEYFCQQYHNSPLTFGGGTKLEIKR | binds
